Test results from publication PMC3861047.
The exact form of at least one protein or probe is not confirmed. A weaker result is weaker than the reference pair of the same experiment. At least one verdict rests on a figure or table, not on a statement of the authors.

By UniProt entry, the sequences of proteins in these tests, tags left out. Where a name states a change or a piece, a line headed by the entry shows the natural chain unless it says otherwise.
UniProt A0A3Q7HRZ6: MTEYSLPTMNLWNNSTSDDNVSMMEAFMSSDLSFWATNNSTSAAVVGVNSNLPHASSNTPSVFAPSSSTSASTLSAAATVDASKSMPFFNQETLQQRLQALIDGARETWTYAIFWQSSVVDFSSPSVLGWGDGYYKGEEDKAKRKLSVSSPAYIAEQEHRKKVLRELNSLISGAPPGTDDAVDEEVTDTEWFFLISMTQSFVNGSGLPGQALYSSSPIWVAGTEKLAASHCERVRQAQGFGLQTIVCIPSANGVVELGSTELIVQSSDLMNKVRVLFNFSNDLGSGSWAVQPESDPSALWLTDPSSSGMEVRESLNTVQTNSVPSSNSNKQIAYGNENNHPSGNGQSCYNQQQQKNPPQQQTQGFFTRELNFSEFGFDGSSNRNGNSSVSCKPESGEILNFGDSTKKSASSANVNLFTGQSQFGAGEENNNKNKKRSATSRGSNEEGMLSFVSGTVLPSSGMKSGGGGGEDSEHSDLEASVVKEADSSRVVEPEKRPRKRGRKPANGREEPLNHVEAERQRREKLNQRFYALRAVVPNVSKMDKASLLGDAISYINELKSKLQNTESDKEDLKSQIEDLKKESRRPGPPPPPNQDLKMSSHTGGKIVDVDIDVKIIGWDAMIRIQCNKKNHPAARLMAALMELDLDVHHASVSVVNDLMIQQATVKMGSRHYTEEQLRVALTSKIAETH

Target: MBP-SlMYC2 (Solanum lycopersicum) (UniProt A0A3Q7HRZ6)
Assay: EMSA
Settings: binding stated to be G-box-like motif-dependent, extent of loss only visible in gel; LightShift Chemiluminescent EMSA kit (Thermo Scientific), acrylamide gel; pH and temperature not given; recombinant protein; protein details: N-terminal MBP (pMAL-c2)

TCGGTTTGACTAAATTCCTAAAGCTTGCACTAAAATGAAACC / GGTTTCATTTTAGTGCAAGCTTTATGGAATTTAGTCAAACCGA [TomLoxDpro probe-369 Mut]
binding result: binds more weakly
